# Measured values published in patent US9309286B2, “Compositions and methods for augmenting permeability barriers” (TUFTS MEDICAL CENTER, priority 2011, dated 2016).
# Protein sequences, listed by entry. Tags and fused reporters are not part of them. Residues count along the entry.
# UniProt Q80ZF4, 1-386: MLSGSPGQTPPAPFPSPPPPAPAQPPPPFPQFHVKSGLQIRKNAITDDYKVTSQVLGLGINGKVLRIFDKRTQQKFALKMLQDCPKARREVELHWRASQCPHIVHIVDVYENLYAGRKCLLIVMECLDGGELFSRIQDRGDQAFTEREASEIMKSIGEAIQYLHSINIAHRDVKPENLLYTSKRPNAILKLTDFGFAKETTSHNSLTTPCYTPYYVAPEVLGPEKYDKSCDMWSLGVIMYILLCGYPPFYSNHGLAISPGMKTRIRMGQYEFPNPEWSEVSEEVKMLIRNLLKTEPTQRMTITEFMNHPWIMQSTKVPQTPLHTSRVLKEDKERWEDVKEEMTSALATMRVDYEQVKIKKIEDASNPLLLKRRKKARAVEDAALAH
# Entries after “also recorded” stand apart in the source; their conditions may differ. Part of at least one peptide drawing is inferred or uncertain, most often the ends. Peptide text beside a SMILES is read from it.
# Assays:
# MK2 = target: T1, MK2 (Rattus norvegicus, UniProt Q80ZF4); format: cell-based
# T1 construct: endogenous in cells; host or cells: RPMEC (rat pulmonary endothelial cells)
# rats = conditions: rat, in vivo
structure (smiles),measurement,setting,value
C[C@H](NC(=O)[C@H](C)NC(=O)[C@@H]1CCCN1C(=O)[C@H](C)NC(=O)CNC(=O)[C@H](CCCNC(=N)N)NC(=O)[C@H](CCCNC(=N)N)NC(=O)[C@@H](NC(=O)CNC(=O)[C@@H]1CCCN1C(=O)[C@@H](NC(=O)[C@H](CCCNC(=N)N)NC(=O)[C@H](CCCNC(=N)N)NC(=O)[C@H](C)NC(=O)[C@@H]1CCCN1C(=O)[C@H](CC(N)=O)NC(=O)[C@H](CCCNC(=N)N)NC(=O)[C@@H]1CCCN1C(=O)[C@H](Cc1c[nH]cn1)NC(=O)[C@H](C)NC(=O)[C@H](CCCNC(=N)N)NC(=O)[C@H](C)NC(=O)[C@H](CCC(N)=O)NC(=O)[C@H](CCCNC(=N)N)NC(=O)[C@H](C)NC(=O)[C@H](C)NC(=O)[C@H](C)NC(=O)[C@H](CCCNC(=N)N)NC(=O)[C@H](C)NC(=O)[C@@H](N)Cc1ccc(O)cc1)[C@@H](C)O)[C@@H](C)O)C(N)=O [MK2-activating peptide] (H-YARAAARQARAHPRNPARRTPGTRRGAPAA-NH2),MK2 activation (phosphorylated HSP27 immunoblot),MK2,significant MK2 activation
same,Reversal of LeTx effect on HSP27 phosphorylation,MK2,effective in reversing the effects of LeTx; also recorded: can reverse the effect of anthrax Lethal Toxin (LeTx)
same,Total level of HSP27,MK2,no effect on the total level of HSP27
same,Treatment time by which significant MK2 activation was observed,MK2,≤ 15 min
same,"Evans Blue accumulation in lungs (vascular leak and edema), peptide plus LeTx",rats,much clearer lungs
